Data taken from PMC11014671, “Small molecules that disrupt RAD54-BLM interaction hamper tumor proliferation in colon cancer chemoresistance models” (The Journal of Clinical Investigation, 2024).
No constants are given. Whether binding was seen depends on the method and setting. Binding seen in cells or lysates may run through a third protein. Some results given as binding are weak or reduced against the parent protein; the word gives no strength.

Sequences of proteins named here, by UniProt entry; tags and fusion partners are left off.
UniProt O88700: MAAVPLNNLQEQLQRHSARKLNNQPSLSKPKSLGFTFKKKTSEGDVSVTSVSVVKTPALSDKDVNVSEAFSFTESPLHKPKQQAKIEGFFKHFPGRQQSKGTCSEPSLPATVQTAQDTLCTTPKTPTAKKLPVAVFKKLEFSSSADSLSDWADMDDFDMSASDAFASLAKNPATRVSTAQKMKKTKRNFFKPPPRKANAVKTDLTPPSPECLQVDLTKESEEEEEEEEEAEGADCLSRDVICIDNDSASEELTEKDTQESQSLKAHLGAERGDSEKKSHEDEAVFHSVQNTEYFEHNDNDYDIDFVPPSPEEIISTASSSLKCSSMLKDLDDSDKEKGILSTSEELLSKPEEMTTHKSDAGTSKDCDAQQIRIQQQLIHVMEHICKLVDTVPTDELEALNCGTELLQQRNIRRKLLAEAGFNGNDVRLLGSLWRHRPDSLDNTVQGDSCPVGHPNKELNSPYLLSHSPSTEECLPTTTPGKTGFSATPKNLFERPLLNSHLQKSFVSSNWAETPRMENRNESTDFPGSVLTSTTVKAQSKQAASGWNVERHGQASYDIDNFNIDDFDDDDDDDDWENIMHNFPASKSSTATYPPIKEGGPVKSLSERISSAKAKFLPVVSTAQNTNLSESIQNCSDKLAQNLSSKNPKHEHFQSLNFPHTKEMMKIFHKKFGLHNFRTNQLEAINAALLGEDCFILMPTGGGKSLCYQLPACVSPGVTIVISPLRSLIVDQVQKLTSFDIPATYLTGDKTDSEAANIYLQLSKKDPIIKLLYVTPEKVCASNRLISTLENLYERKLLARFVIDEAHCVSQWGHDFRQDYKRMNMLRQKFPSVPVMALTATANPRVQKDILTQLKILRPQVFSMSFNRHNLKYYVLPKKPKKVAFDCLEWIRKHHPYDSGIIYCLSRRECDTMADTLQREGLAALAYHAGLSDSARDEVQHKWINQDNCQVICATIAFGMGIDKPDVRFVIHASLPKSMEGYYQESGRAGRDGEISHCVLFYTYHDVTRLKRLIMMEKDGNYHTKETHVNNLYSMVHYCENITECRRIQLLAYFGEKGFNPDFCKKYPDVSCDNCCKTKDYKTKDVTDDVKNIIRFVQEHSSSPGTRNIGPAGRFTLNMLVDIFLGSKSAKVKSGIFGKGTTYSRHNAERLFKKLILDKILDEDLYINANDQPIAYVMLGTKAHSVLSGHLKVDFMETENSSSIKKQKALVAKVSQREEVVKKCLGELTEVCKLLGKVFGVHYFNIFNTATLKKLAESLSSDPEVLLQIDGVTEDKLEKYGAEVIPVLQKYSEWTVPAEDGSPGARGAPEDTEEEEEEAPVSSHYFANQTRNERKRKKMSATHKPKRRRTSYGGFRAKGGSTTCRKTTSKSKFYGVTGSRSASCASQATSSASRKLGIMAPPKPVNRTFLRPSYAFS

Molecular target: T1, RAD54 (endogenous, murine CT26 cells) (mouse (endogenous in CT26)) (UniProt P70270)
T1 sequence: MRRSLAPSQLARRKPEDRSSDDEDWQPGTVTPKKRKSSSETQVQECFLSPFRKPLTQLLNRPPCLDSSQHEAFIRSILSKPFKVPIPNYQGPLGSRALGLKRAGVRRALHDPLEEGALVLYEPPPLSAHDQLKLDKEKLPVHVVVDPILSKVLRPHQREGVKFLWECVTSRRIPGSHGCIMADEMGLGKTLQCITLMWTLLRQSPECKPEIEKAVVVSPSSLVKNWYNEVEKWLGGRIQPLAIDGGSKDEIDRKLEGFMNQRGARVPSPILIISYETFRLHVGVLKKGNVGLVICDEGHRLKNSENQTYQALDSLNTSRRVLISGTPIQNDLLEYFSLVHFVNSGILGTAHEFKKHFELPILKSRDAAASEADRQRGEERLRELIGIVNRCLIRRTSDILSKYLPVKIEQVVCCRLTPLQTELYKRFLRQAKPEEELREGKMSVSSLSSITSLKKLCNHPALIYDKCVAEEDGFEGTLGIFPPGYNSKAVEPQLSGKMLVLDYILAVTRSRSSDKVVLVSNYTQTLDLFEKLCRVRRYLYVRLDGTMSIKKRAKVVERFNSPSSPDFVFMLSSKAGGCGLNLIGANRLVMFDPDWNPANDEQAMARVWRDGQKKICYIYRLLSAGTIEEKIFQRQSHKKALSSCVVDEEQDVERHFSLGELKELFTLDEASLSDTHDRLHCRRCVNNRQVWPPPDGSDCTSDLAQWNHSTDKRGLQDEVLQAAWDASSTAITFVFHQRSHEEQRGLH
Assay: co-IP; lysates of HCT116 (human) or CT26 (murine) cells immunoprecipitated with anti-RAD54 antibodies, immunoprecipitates probed with anti-BLM antibodies; anti-IgG as control

**Q.** For “BLM (endogenous, murine CT26 cells) (from UniProt O88700 1-1416)”, which binding is on record?
**A.** binds
